Assay results as given in US20250313537A1, “BENZ[…] AND METHODS OF USE IN TREATING CANCER” (University of Cincinnati, priority 2022, published 2025).

Key:
[1] = tested on: Lewis Lung Carcinoma cells; assay: Mitochondrial depolarization, TMRE binding by FACS; type: cell-based, mouse
[2] = tested on: GABAA receptors; settings: medulloblastoma (cells and tumor tissue) and melanoma cells
[3] = tested on: Lewis Lung Carcinoma (LLC) tumors; assay: Bilateral flank LLC tumor growth delay in C57Bl6 mice; type: in vivo, mouse; settings: 2.5 mg/kg i.p. for seven consecutive days
Excerpt: For in vitro studies drug was solubilized in dimethyl sulfoxide (DMSO, 0.125%) prior to use. For mouse studies drug was solubilized in a co-solvent formulation: propylene glycol (40%); ethanol (10%); benzyl alcohol (2%); benzoic acid (2%); sodium benzoate (2%).
For subcutaneous xenograft tumor growth delay experiments, black 6 mice (C57Bl6) were purchased (Charles River Laboratories) and housed at University of Cincinnati LAMS. Purchased mice were allowed to accommodate for a week prior to experiment. Mice were housed in pathogen-free rooms and clinical health evaluated weekly by veterinary staff of the University of Cincinnati LAMS. All animal studies were conducted in accordance with approval of a University of Cincinnati IACUC.
LLC1 cells (a million) grown in RPMI medium were washed in cold PBS and mixed with Matrigel 25%, then injected subcutaneously into left and right flanks above the hind limbs of 6 to 8-week-old mice. When subcutaneous tumors were palpable (˜100 mm^3 in size) the following treatments groups were initiated: (1) vehicle (2) drug. In mice receiving vehicle alone, the vehicle was injected i.p for 7 days. […] Mouse tumors were measured by Vernier calipers. Tumor volume was calculated using the formula: 4/3π×(l×h2), where: l and h are radii of the tumor taken perpendicular to each other. Tumor size was measured three times a week using a caliper.

C#Cc1ccc2c(c1)C(c1ccccc1)=NCC(=O)N2C [QH-II-066]
TMRE binding (depolarization) ([1]; Lewis Lung Carcinoma cells, FACS, within 15 minutes of incubation): reduced TMRE binding
shift in electric charge distribution / depolarization of cancer cells ([1]; different/disparate cancer cell types): shift in electric charge distribution
chloride transport [2]: enhances chloride transport
tumor control relative to vehicle mice [3]: significant tumor control
